Results on 6 targets are retold here after the supplement of paper PMC12819154, “High-throughput peptide-centric local stability assay extends protein–ligand identification to membrane proteins, tissues and bacteria” (Nature Structural & Molecular Biology, 2025).

Chains of the proteins cited; added tags and fusions are not shown. Lines headed by an entry give the natural chain unless they say otherwise; changes in a name come on top.
UniProt P37750: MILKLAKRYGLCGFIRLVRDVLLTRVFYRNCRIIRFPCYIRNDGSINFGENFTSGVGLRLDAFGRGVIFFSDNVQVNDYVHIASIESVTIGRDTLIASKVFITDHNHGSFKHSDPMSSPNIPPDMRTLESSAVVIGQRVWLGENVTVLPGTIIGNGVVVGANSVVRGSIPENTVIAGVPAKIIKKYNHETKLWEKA
UniProt P37626: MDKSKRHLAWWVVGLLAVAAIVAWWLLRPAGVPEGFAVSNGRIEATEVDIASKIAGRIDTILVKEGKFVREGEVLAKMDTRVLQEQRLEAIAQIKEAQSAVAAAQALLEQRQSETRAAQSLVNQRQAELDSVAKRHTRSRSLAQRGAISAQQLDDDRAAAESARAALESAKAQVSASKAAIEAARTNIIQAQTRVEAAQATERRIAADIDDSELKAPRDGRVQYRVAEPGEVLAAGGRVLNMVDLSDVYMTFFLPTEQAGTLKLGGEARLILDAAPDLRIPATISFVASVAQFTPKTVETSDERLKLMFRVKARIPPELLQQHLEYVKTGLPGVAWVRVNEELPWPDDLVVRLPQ
UniProt P39321: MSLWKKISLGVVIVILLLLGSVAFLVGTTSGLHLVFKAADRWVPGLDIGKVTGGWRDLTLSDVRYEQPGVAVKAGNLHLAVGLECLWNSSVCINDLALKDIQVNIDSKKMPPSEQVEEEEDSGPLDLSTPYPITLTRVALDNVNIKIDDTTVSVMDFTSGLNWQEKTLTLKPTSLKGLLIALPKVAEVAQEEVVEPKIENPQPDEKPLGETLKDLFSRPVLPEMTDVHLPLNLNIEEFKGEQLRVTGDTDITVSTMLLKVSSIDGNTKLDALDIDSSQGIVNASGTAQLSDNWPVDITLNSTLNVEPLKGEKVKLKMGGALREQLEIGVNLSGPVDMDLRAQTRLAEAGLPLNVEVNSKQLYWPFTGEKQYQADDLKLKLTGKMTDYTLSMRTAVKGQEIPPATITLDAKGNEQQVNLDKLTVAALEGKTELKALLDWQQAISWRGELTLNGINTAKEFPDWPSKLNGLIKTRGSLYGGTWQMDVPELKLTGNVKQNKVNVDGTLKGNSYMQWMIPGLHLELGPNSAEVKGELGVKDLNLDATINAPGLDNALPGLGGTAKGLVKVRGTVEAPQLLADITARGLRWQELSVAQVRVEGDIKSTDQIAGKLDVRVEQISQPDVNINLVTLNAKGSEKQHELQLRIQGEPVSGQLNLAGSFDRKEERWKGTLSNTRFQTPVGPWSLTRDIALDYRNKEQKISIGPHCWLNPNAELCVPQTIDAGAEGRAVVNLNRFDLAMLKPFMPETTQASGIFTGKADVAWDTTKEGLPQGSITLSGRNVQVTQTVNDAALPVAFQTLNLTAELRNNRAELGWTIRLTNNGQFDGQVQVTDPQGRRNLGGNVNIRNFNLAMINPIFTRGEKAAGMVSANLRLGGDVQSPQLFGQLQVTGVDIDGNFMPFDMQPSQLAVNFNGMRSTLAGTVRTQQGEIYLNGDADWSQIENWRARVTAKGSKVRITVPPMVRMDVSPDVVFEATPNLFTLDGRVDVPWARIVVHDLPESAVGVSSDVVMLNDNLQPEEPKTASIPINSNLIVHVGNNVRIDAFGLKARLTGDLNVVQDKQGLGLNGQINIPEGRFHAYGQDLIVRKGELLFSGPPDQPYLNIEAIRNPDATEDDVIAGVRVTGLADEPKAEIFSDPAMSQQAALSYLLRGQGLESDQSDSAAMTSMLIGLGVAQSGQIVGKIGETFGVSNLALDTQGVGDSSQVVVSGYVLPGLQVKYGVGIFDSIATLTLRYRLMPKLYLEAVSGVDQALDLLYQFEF
UniProt P37342: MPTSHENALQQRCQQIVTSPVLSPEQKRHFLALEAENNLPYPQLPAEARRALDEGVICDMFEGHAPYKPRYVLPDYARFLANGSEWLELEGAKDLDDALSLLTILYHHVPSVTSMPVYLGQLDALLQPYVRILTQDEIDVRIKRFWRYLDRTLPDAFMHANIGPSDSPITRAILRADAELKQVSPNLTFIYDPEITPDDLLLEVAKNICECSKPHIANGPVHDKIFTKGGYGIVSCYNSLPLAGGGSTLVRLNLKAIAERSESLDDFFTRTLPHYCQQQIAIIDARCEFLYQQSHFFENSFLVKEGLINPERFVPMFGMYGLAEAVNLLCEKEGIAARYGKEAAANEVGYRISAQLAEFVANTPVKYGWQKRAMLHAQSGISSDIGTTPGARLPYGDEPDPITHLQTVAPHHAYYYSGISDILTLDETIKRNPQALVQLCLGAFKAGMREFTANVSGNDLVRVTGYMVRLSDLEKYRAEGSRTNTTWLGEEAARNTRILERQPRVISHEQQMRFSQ
UniProt P37760: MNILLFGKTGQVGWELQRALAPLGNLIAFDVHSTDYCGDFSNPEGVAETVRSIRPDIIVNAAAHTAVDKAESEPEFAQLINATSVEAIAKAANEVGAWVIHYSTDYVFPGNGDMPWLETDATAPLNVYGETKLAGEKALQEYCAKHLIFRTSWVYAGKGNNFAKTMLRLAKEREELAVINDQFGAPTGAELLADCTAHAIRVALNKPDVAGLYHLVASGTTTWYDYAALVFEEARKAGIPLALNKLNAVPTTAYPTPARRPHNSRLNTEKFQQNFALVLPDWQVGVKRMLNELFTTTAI
UniProt P38097: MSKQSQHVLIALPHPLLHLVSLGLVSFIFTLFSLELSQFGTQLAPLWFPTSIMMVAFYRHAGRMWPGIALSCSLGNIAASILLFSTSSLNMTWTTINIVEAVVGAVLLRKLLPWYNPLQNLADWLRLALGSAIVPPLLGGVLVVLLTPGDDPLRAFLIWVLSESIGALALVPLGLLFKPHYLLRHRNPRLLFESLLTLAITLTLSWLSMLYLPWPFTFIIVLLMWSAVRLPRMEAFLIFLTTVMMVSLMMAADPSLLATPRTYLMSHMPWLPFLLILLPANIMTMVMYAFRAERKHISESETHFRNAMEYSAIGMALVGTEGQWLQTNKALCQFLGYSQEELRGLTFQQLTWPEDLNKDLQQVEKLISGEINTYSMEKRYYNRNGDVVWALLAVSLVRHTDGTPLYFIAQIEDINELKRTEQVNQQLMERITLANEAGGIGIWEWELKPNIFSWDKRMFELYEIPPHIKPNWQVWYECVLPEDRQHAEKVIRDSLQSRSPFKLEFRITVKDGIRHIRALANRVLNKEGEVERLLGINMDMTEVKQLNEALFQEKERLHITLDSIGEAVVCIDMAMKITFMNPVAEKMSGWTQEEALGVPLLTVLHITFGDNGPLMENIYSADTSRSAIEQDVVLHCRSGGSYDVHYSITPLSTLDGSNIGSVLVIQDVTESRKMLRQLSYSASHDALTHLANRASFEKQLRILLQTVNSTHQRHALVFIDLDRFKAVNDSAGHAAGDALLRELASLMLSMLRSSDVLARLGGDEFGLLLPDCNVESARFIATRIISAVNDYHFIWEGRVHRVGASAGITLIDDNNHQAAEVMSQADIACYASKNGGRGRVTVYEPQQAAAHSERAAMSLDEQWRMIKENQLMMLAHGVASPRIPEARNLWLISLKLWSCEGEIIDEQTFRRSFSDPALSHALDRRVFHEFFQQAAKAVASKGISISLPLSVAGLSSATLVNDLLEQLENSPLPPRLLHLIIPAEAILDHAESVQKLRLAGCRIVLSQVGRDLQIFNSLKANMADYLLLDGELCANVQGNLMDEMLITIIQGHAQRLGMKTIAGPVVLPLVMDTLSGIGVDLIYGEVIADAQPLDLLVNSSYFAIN

The other results are listed elsewhere or left out. Small differences around the control level are noise.

Compound in the test: CC1(C)S[C@@H]2[C@H](NC(=O)[C@H](N)c3ccccc3)C(=O)N2[C@H]1C(=O)O [ampicillin]
In words: log2 fold change of tryptic peptide abundance, ligand vs vehicle (limited proteolysis) (log2 ratio); higher = more trypsin-susceptible (destabilized). The following applies: ligand concentration: 10 uM; sample: E. coli crude lysate.
With “UniProt P37750 (peptide sequence: HSDPMSSPNIPPDMR, peptide start residue: 112)”, the log2 fold change was -0.161.
The same measure for “UniProt P37626 (peptide sequence: RIAADIDDSELKAPR, peptide start residue: 204)”: 0.163; for “UniProt P39321 (peptide sequence: DLTLSDVR, peptide start residue: 57)”: -0.459.
The same measure for “UniProt P37342 (peptide sequence: ALDEGVICDMFEGHAPYKPR, peptide start residue: 51)”: -0.182; for “UniProt P37760 (peptide sequence: AGIPLALNK, peptide start residue: 237)”: 0.21; for “UniProt P38097 (peptide sequence: AAMSLDEQWR, peptide start residue: 855)”: -0.358.
